Measured values published in US8415115B2, “Reaction medium for methicillin-resistant Staphylococcus aureus (MRSA) bacteria” (Biomerieux, priority 2008, dated 2013).
For at least one compound, name, drawing or mass did not settle the structure.

Test system: Methicillin-resistant Staphylococcus aureus (MRSA)
Experiment: Detection of MRSA strains (colored colonies) on chromID MRSA based media with alpha-glucosidase substrates and antibiotics
Assay type: cell-based
Conditions: Example B, alpha-glucosidase substrates
Excerpt: […]
The strains detected correspond to the strains forming colored colonies on the medium.

Compound	Sensitivity and specificity, MRSAs distinguished from MSSAs (in words)
C=CC1=C(C(=O)O)N2C(=O)[C@@H](NC(=O)/C(=N\O)c3csc(N)n3)[C@H]2SC1 [Cefdinir]	did not make it possible to obtain, on their own, a sensitivity and a specificity enabling MRSAs to be distinguished from MSSAs
COCC1=C(C(=O)O)N2C(=O)[C@@H](NC(=O)/C(=N\OC)c3csc(N)n3)[C@H]2SC1 [Cefpodoxime]	did not make it possible to obtain, on their own, a sensitivity and a specificity enabling MRSAs to be distinguished from MSSAs
